Measurements as given in US11299762B2, “Nanoscale motion detector” (Ecole Polytechnique Fédérale de Lausanne (EPFL), priority 2011, dated 2022).
At least one compound was matched to its structure with a doubt left.

Test system: Escherichia coli
Experiment: Antibiotic sensitivity detection, bacteria adsorbed on cantilever
Format: cell-based
Settings: antibiotic-enriched LB solution; E. coli resistant to kanamycin, sensitive to ampicillin; FIG. 8
Excerpt: Motile bacteria (Escherichia coli), resistant to kanamycin but sensitive to ampicillin, were adsorbed to both sides of a cantilever. The bacteria were successively exposed to both antibiotics to determine the impact on the bacterial motion/viability (see FIG. 7).
In these experiments the cantilever was introduced in the analysis chamber and exposed to a solution containing bacteria that eventually attached to its surface. The system was then exposed to: 1) nutriment depleted buffer, 2) nutriment solution (Lysogeny broth (LB)), 3) kanamycin-enriched LB solution 4) LB solution 5) ampicillins-enriched LB solution and, finally, 6) LB solution.
The experiment was performed using an APTES-coated AFM cantilever. The different phases of the experiment are depicted: PBS, bacteria in PBS, bacteria in LB, exposure to kanamycin, washing with LB, exposure to ampicillin, washing with LB.

SMILES: NC[C@H]1O[C@H](O[C@H]2[C@H](O)[C@@H](O[C@H]3O[C@H](CO)[C@@H](O)[C@H](N)[C@H]3O)[C@H](N)C[C@@H]2N)[C@H](O)[C@@H](O)[C@@H]1O [kanamycin]
- bacterial motion (cantilever fluctuations): diminished
